{"source": "PubChem BioAssay AID1347131", "about": "(National Center for Advancing Translational Sciences (NCATS), 2019)", "note": "Out of some 410,000 compounds screened, about 2,000 (0.49%) were called active. Inconclusive results, whose numbers are uncertain, are shown with a selection of clear calls. The call rests on the fitted dose curve; tested in HEK293 reporter line. Potencies beside an inconclusive call are fits to weak or partial responses and may not hold up. Potency means the concentration at half of the fitted maximal effect.", "data": [{"assay": "qHTS Assay for Foot and Mouth Disease Virus Antivirals: Primary Screen against the MLPCN compound library; further: nearly all actives have a fitted effect of over 55% in size", "details": "FMDV antiviral cell-based qHTS; activity, negative = inhibition: at 57.9 µM (top of the series)", "values": [{"smiles": "CCCCN1C(=O)c2ccc(C(=O)Nc3ccc(C)c(S(=O)(=O)N(C)C)c3)cc2C1=O", "Potency": "inconclusive: 17.8 µM [inhibitor, partial curve, poor fit]"}, {"smiles": "O=C(Cc1ccc(Cl)cc1)Nc1ccccc1N1CCN(C(=O)c2ccccc2)CC1", "Potency": "inconclusive: 35.5 µM [inhibitor, partial curve, poor fit]"}, {"smiles": "O=C1c2ccccc2C(=O)C1c1ccnc2ccccc12", "Potency": "active: 14.1 µM"}, {"smiles": "COc1ccc(CCNc2ncnc3nc[nH]c23)cc1OC", "Potency": "inconclusive: 25.1 µM [inhibitor, partial curve, poor fit]"}, {"smiles": "CCCOc1ccc(-c2cn3ccccc3n2)cc1", "Potency": "inconclusive: 15.8 µM [inhibitor, single point]"}, {"smiles": "Cn1cnc([N+](=O)[O-])c1Oc1cccc(O)c1", "Potency": "inconclusive: 39.8 µM [inhibitor, partial curve, poor fit]"}, {"smiles": "CN(C)c1ccc(/C=N/NC(=O)c2ccco2)cc1", "Potency": "inconclusive: 17.8 µM [inhibitor, partial curve]"}, {"smiles": "CC(C)(C)c1ccc(C(=O)Nc2ccc(Oc3cccnc3)nc2)cc1", "Potency": "inconclusive: 35.5 µM [inhibitor, partial curve, poor fit]"}, {"smiles": "CCCCS(=O)(=O)c1oc(-c2cccs2)nc1S(=O)(=O)c1ccc(F)cc1", "Potency": "inconclusive: 31.6 µM [inhibitor, partial curve, poor fit]"}, {"smiles": "CCN1CCN(Cc2ccc(NC(=O)c3ccc(C)c(NC(=O)c4cccc5[nH]ccc45)c3)cc2C(F)(F)F)CC1", "Potency": "inconclusive: 17.8 µM [inhibitor, partial curve, poor fit]"}, {"smiles": "CCC(=O)N1CCc2cc(Br)cc(S(=O)(=O)N3CCC(C(=O)Nc4ccccc4F)CC3)c21", "Potency": "inconclusive: 31.6 µM [inhibitor, single point]"}, {"smiles": "CCc1cc2c(=O)n(Cc3ccco3)c(SCC(=O)NCC3CCCO3)nc2s1", "note": "(stereo not given)", "Potency": "inconclusive: 25.1 µM [inhibitor, partial curve, poor fit]"}, {"smiles": "COc1cc(CCC(=O)Nc2ccc(C)c(S(=O)(=O)N(C)C)c2)cc(OC)c1OC", "Potency": "inconclusive: 28.2 µM [inhibitor, partial curve, poor fit]"}, {"smiles": "Cc1ccccc1CNC(=O)c1oc2c(c1C)-c1nn(Cc3ccc(Cl)cc3)cc1CC2", "Potency": "inconclusive: 17.8 µM [inhibitor, single point]"}, {"smiles": "O=C(Nc1nc2ccccc2s1)c1ccc(N2CCCCC2)c([N+](=O)[O-])c1", "Potency": "inconclusive: 39.8 µM [inhibitor, single point]"}, {"smiles": "CN(C)c1ccc(NC(=O)c2cnsn2)cc1", "Potency": "inconclusive: 17.8 µM [inhibitor, single point]"}, {"smiles": "CCc1sc(C(=O)Nc2ncccc2O)cc1C", "Potency": "inconclusive: 17.8 µM [inhibitor, single point]"}, {"smiles": "C=CCOc1ccccc1CNc1ccc2c(c1)OCCO2", "Potency": "inconclusive: 17.8 µM [inhibitor, partial curve, poor fit]"}, {"smiles": "COc1ccccc1CCNC(=O)C(=O)NCCC1CCCCN1S(=O)(=O)c1ccccc1", "note": "(stereo not given)", "Potency": "inconclusive: 14.1 µM [inhibitor, partial curve]"}, {"smiles": "CSc1nccc(-c2c(-c3ccc(Cl)cc3)noc2C)n1", "activity, negative = inhibition": "inconclusive: -30.7% [inhibitor]"}, {"smiles": "O=C(Nc1nc2n(n1)C(c1ccccc1)C=C(c1ccccc1)N2)c1ccccc1", "note": "(stereo not given)", "Potency": "inconclusive: 10 µM [inhibitor, partial curve]"}, {"smiles": "O=C1N(Cc2cccc(Cl)c2)C[C@@H]2C[C@@H](c3ccsc3)N3CCC[C@@]123", "Potency": "inconclusive: 20 µM [inhibitor, single point]"}, {"smiles": "O=C(CN1C(=O)c2ccccc2S1(=O)=O)c1ccc(Cl)cc1Cl", "Potency": "inconclusive: 2 µM [inhibitor, partial curve, poor fit]"}, {"smiles": "Cc1cnc(NC(=O)c2cc3c(s2)CCCC3)s1", "Potency": "inconclusive: 17.8 µM [inhibitor, single point]"}, {"smiles": "COc1cc(C(=S)N2CCOCC2)ccc1OS(=O)(=O)c1ccc(NC(C)=O)cc1", "Potency": "inconclusive: 12.6 µM [inhibitor, partial curve, poor fit]"}, {"smiles": "CCN(CCCNC(=O)CC(C(=O)N1CCc2ccccc21)n1ccnc1)c1cccc(C)c1", "note": "(stereo not given)", "activity, negative = inhibition": "inactive: -34.7%"}, {"smiles": "COc1ccc(-c2cn[nH]c2-c2ccc(OCc3ccccc3)cc2O)cc1", "Potency": "inconclusive: 11.2 µM [inhibitor, single point]"}, {"smiles": "CCN(CC(=O)NC(C)C)C(=O)C(CCSC)NC(=O)c1cccc(C)c1", "note": "(stereo not given)", "Potency": "inconclusive: 14.1 µM [inhibitor, partial curve]"}, {"smiles": "O=C(/C=C/c1cccs1)N1CCc2ccccc21", "Potency": "inconclusive: 20 µM [inhibitor, single point]"}, {"smiles": "C=CCn1c(SCC(=O)c2ccccc2)nnc1-c1cc2ccccc2o1", "Potency": "inconclusive: 39.8 µM [inhibitor, partial curve, poor fit]"}, {"smiles": "CCc1c(C)nc2ncnn2c1NCCc1ccc(OC)cc1", "Potency": "inconclusive: 11.2 µM [inhibitor, partial curve, poor fit]"}, {"smiles": "CCN(CC)S(=O)(=O)c1ccc2nc(COC(=O)c3n[nH]c4ccccc34)[nH]c2c1", "Potency": "inconclusive: 10 µM [inhibitor, partial curve]"}, {"smiles": "Cc1ccc(-c2cn3cc(C)ccc3n2)cc1", "Potency": "inconclusive: 8.91 µM [inhibitor, full curve, poor fit]"}, {"smiles": "O=C(Oc1cccc(/C=N/Nc2nc(N3CCOCC3)nc(N3CCOCC3)n2)c1)c1ccco1", "activity, negative = inhibition": "inactive: -35.2%"}, {"smiles": "CCCOc1ccc(Cn2cnc3ccccc32)cc1", "Potency": "inconclusive: 2.82 µM [inhibitor, full curve]"}, {"smiles": "Cc1cc(C)c(C(N)=O)c(SCC(=O)c2cc(C)c(C)cc2C)n1", "activity, negative = inhibition": "inactive: -34.3%"}, {"smiles": "COC(=O)C1=C(c2cccc(OCc3ccccc3)c2)C[C@@H]2CC[C@H]1N2C(=O)NCCOc1ccccc1", "Potency": "inconclusive: 28.2 µM [inhibitor, partial curve, poor fit]"}, {"smiles": "N#Cc1cc2c(nc1SCC(=O)Nc1ccc(OC(F)(F)F)cc1)C1CCN2CC1", "Potency": "active: 15.8 µM"}, {"smiles": "Cc1ccccc1Nc1sc(C(=O)c2ccc(F)cc2)c(N)c1C(=O)NCCc1ccccc1", "Potency": "inconclusive: 15.8 µM [inhibitor, single point]"}, {"smiles": "O=C1/C(=C/c2cccs2)CCc2ccccc21", "Potency": "inconclusive: 39.8 µM [inhibitor, single point]"}, {"smiles": "CSc1nc(Nc2ccc(C)cc2C)cc(-c2ccccc2)n1", "activity, negative = inhibition": "inactive: -34.8%"}, {"smiles": "COc1ccc(-c2nc3ccc([N+](=O)[O-])cc3[nH]2)cc1", "Potency": "inconclusive: 15.8 µM [inhibitor, single point]"}, {"smiles": "Cc1cc(C)cc(Cn2ncc(Cl)c(Cl)c2=O)c1", "Potency": "inconclusive: 28.2 µM [inhibitor, single point]"}, {"smiles": "CS(=O)(=O)N1CCN(C(=O)C2c3ccccc3Oc3ccccc32)CC1", "Potency": "inconclusive: 11.2 µM [inhibitor, partial curve]"}, {"smiles": "O=C(CSc1nc(=O)n(CCN2CCOCC2)c2c1CCC2)Nc1ccc(OC(F)(F)F)cc1", "activity, negative = inhibition": "inactive: -40.8%"}, {"smiles": "Cc1ccc2nc(NC(=O)C3CC(=O)N(Cc4ccco4)C3)sc2c1", "note": "(stereo not given)", "Potency": "inconclusive: 7.08 µM [inhibitor, partial curve, poor fit]"}, {"smiles": "CC1(c2ccccc2Cl)NC(=O)N(CC(=O)Nc2ccccc2OC(F)F)C1=O", "note": "(stereo not given)", "Potency": "inconclusive: 10 µM [inhibitor, partial curve]"}, {"smiles": "O=C(/C=C/Nc1ccc(Br)cc1F)c1ccco1", "Potency": "inconclusive: 10 µM [inhibitor, partial curve, poor fit]"}, {"smiles": "O=C(C[C@H]1C/C=C/CC[C@@H](Cc2ccc(F)cc2)C(=O)O[C@@H](c2ccccc2)CNC1=O)NCCO", "Potency": "inconclusive: 6.31 µM [inhibitor, partial curve, poor fit]"}, {"smiles": "S=C1NC[C@H](CC2CCCCC2)N1CCc1cccc2ccccc12", "Potency": "inconclusive: 12.6 µM [inhibitor, partial curve]"}, {"smiles": "COCc1c(C(=O)N2CCN(S(=O)(=O)c3ccccc3Cl)CC2)oc2ccccc12", "Potency": "inconclusive: 20 µM [inhibitor, partial curve, poor fit]"}, {"smiles": "CCCc1[nH]nc2c1C(c1ccccc1OC)C(C#N)=C(N)O2", "note": "(stereo not given)", "Potency": "inconclusive: 28.2 µM [inhibitor, partial curve, poor fit]"}, {"smiles": "CCOc1cc(CNc2ccc(N3CCCCC3)cc2)cc(Br)c1OCC(=O)NC(C)(C)C", "Potency": "inconclusive: 31.6 µM [inhibitor, partial curve, poor fit]"}, {"smiles": "CC(C)OCCCNC(=O)c1cc(-c2cccnc2)nc2ccccc12", "Potency": "inconclusive: 8.91 µM [inhibitor, partial curve]"}, {"smiles": "CN1CCN(C(=O)c2cc3nc(-c4ccccc4)cc(C(F)(F)F)n3n2)CC1", "activity, negative = inhibition": "inactive: -43.7%"}, {"smiles": "Cc1ccc(Oc2ccc(S(=O)(=O)NCC(C)(C)N3CCOCC3)cc2)cc1", "Potency": "inconclusive: 8.91 µM [inhibitor, partial curve, poor fit]"}, {"smiles": "Cc1ccc(C)c(N2CCN(C(=O)CCCN3C(=S)NC(C)(C)CC3C)CC2)c1", "note": "(stereo not given)", "Potency": "inconclusive: 22.4 µM [inhibitor, partial curve, poor fit]"}, {"smiles": "O=C(/C=C/c1ccccc1[N+](=O)[O-])N1CCCCC1", "Potency": "inconclusive: 10 µM [inhibitor, partial curve]"}, {"smiles": "O=C1C(Br)=C(c2ccccc2)C(c2ccccc2)=C1c1ccccc1", "Potency": "inconclusive: 3.55 µM [inhibitor, partial curve, poor fit]"}, {"smiles": "O=C(CSc1nc2ccc(Cl)cc2[nH]1)NC1CCCc2ccccc21", "note": "(stereo not given)", "Potency": "inconclusive: 28.2 µM [inhibitor, partial curve, poor fit]"}]}]}
